The series in a line: general procedure: solution-phase peptide synthesis; Fmoc-amino acid OSu/OAt active esters, Fmoc-Val-F; DCC/HOBt or EDC/HOBt for cycl. To be noted: lyophilized from 0.5% HCl; for step yield: late stage modification step; for cyclisation yield: cyclisation step.

“Cyclo[Tyr-D-Trp-Lys-Val-PheΨ(4-(3-Methoxyphenyl)imidazole)-Gly]” yielded a step yield of 29%.
The same measure, in the same setting: under “1-((2-Ethoxy-2-oxo)ethyl)-2-(1-(S)-((Fmoc-Trp-D-Trp-Lys(Boc)-Tyr(OBzl))-amino)-2-phenylethyl)-(3-methoxyphenyl)-imidazole” stands 80%.
The same measure, in the same setting: under “Cyclo[Trp-D-Trp-Lys-Val-PheΨ(4-(3-methoxyphenyl)imidazole)-Gly]” stands 14%.
Substance “Cyclo[Trp-D-Trp-Lys(Boc)-Tyr(Bzl)-PheΨ(4-(3-methoxyphenyl)imidazole)-Gly]” had a cyclisation yield of 46%.
The same measure, in the same setting: with “Cyclo[Trp-D-Trp-Lys(Cbz)-Val-PheΨ(4-(3-methoxyphenyl)imidazole)-Gly]” the figure was 71%.
For “Cyclo[Tyr(OBzl)-D-Trp-Lys-Val-PheΨ(4-(3-methoxyphenyl)imidazole)-Gly]”, the step yield is listed as 21%.
“Cyclo[Tyr(OBzl)-D-Trp-Lys(Cbz)-Val-PheΨ(4-(3-methoxyphenyl)imidazole)-Gly]” came in with a cyclisation yield (from intermediate 1d) of 48%.
As to “2-(1-(S)-((Fmoc-Trp-D-Trp-Lys(Cbz)-Tyr(Bzl))-amino)-2-phenylethyl)-4-(3-methoxyphenyl)-1-(triphenylmethyl)-imidazole”, the isolated yield (whole synthesis) amounted to 57%.
In turn, “Cyclo[Trp-D-Trp-Lys-Val-PheΨ(4-(3-hydroxyphenyl)imidazole)-Gly]” came in with a step yield of 29%.

These data come from US6602849 (dated 2003).
